No constants are given. Whether binding was seen depends on the method and setting. In cells and extracts the contact can be indirect. A yes stands for co-enrichment or nearness to the bait. Other partners may have been found.
Tests used:
[1] = biological target: MBD3-GFP (mouse) (UniProt Q9Z2D8); assay: affinity purification with mass spectrometry; purification of MBD3-GFP from the ESC nuclear pellet fraction left after nuclear extraction, solubilised in RIPA buffer with benzonase (tightly chromatin-bound NuRD)
[2] = biological target: MBD3-GFP (mouse) (UniProt Q9Z2D8); assay: affinity purification with mass spectrometry; label-free GFP pulldown in triplicate: MBD3-GFP held on GFP-Trap beads from 2 mg ESC nuclear extract; Buffer C with 300 mM NaCl, 0.1% NP-40, 50 ug/mL ethidium bromide; on-bead digestion, nLC-MS/MS

Chains of the proteins cited; added tags and fusions are not shown.
UniProt Q9Z2D8: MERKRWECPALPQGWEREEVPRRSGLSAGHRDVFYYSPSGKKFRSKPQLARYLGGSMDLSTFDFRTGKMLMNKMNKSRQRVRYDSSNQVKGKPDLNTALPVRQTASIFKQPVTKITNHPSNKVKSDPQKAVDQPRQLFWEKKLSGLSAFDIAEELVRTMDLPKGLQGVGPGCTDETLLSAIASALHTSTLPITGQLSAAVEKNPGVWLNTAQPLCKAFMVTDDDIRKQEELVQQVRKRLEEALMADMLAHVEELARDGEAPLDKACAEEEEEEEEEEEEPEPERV

B1: zinc finger protein 296 (ZFP296) (protein, UniProt E9Q6W4 1-445)
chain: MSRRKAGRVPRRVDPDTDTDIEMPDLVMDVKPDLDLRSLAQGPWIARDMPISDVKRQLQTASRPLGAPSTCAPRMPLSSKSSDRQPWTDKHPDLLTCGRCGKIFPLGAIIAFMDHKKQGCQLLQVSDPISESKELKALSCLQCGRQYTSPWKLLCHAQWDHGLCIYQTQHLDTPEAPLLGLAEVAAAMSAVAVVAPVESKPPPVSSAARRSPTCDVCKKTLSSFSNLKVHMRSHTGERPYSCDQCSYACAQSSKLNRHKKTHRQLAPGSPSTSASSRGVSPAAPPEPAAYAAAPASTLPSQTVEKAGAAATAGVQEPGAPGSGAQGGPGFVGWGAPAKVERTDPVKIEKTAPRKSHGPGGKCEFCGKSFTNSSNLTVHRRSHTGERPYTCDQCPYACAQSSKLNRHRRTHGLGTGKTVKCPHCLVPFGLQATLDKHLRQKHPEMA
binding [1]: binds | binding [2]: binds
